Data taken from paper PMC5217387.

The chains behind the UniProt entries cited, without tags or fusion partners. Residues count along the entry.
UniProt P12763, residues 19-359: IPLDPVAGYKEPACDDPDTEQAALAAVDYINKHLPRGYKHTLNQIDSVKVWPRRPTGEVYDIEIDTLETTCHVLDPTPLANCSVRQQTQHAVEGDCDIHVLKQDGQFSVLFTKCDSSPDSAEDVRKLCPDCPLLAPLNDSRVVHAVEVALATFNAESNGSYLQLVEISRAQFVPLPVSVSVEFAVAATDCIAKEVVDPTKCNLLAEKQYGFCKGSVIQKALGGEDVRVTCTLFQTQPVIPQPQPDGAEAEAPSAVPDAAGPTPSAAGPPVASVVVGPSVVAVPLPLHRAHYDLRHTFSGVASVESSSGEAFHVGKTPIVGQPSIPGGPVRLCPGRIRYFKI

molecular target: fetuin (bovine) (UniProt P12763); assay: affinity purification with mass spectrometry; 1 mg purified host protein (fibronectin, plasminogen, actin or fetuin) biotinylated and bound to avidin agarose; incubated 16 h at 4 °C with M. pneumoniae lysate (1% C7BzO in PBS pH 7.8); washed with PBS; eluted with 7 M urea, 2 M thiourea, 40 mM Tris-HCl, 1% C7BzO; eluate size-fractionated by 1D SDS-PAGE, in-gel trypsin digest, LC-MS/MS; only the target purified

Binder	binding
Mpn142 Fragment 5 (domain or fragment, UniProt Q50341 775-1218) EQRNGVKISTLESQATDGFANSLLNFGTGLKAGVDPAPVARGHKPNYSAVLLVRGGVVRLNFNPDTDKLLDSTDKNSEPISFSYTPFGSAESAVDLTTLKDVTYIAESGLWFYTFDNGEKPTYDGKQQQVKNRKGYAVITVSRTGIEFNEDANTTTLSQAPAALAVQNGIASSQDDLTGILPLSDEFSAVITKDQTWTGKVDIYKNTNGLFEKDDQLSENVKRRDNGLVPIYNEGIVDIWGRVDFAANSVLQARNLTDKTVDEVINNPDILQSFFKFTPAFDNQRAMLVGEKTSDTTLTVKPKIEYLDGNFYGEDSKIAGIPLNIDFPSRIFAGFAALPSWVIPVSVGSSVGILLILLILGLGIGIPMYKVRKLQDSSFVDVFKKVDTLTTAVGSVYKKIITQTSVIKKAPSALKAANNAAPKAPVKPAAPTAPRPPVQPPKKA	binds
Mpn142 Fragment 8 (domain or fragment, UniProt Q50341 1022-1218) NSVLQARNLTDKTVDEVINNPDILQSFFKFTPAFDNQRAMLVGEKTSDTTLTVKPKIEYLDGNFYGEDSKIAGIPLNIDFPSRIFAGFAALPSWVIPVSVGSSVGILLILLILGLGIGIPMYKVRKLQDSSFVDVFKKVDTLTTAVGSVYKKIITQTSVIKKAPSALKAANNAAPKAPVKPAAPTAPRPPVQPPKKA	binds
Mpn142 Fragment 9 (domain or fragment, UniProt Q50341 696-1218) GLNFNFKLNEERLPSRTDQLLVYGIVNESELKSARENAQSTSDDNSNTKVKWTNTASHYLPVPYYYSANFPEAGNRRRAEQRNGVKISTLESQATDGFANSLLNFGTGLKAGVDPAPVARGHKPNYSAVLLVRGGVVRLNFNPDTDKLLDSTDKNSEPISFSYTPFGSAESAVDLTTLKDVTYIAESGLWFYTFDNGEKPTYDGKQQQVKNRKGYAVITVSRTGIEFNEDANTTTLSQAPAALAVQNGIASSQDDLTGILPLSDEFSAVITKDQTWTGKVDIYKNTNGLFEKDDQLSENVKRRDNGLVPIYNEGIVDIWGRVDFAANSVLQARNLTDKTVDEVINNPDILQSFFKFTPAFDNQRAMLVGEKTSDTTLTVKPKIEYLDGNFYGEDSKIAGIPLNIDFPSRIFAGFAALPSWVIPVSVGSSVGILLILLILGLGIGIPMYKVRKLQDSSFVDVFKKVDTLTTAVGSVYKKIITQTSVIKKAPSALKAANNAAPKAPVKPAAPTAPRPPVQPPKKA	binds
Mpn142 Fragment 12 (domain or fragment, UniProt Q50341 982-1218) NGLFEKDDQLSENVKRRDNGLVPIYNEGIVDIWGRVDFAANSVLQARNLTDKTVDEVINNPDILQSFFKFTPAFDNQRAMLVGEKTSDTTLTVKPKIEYLDGNFYGEDSKIAGIPLNIDFPSRIFAGFAALPSWVIPVSVGSSVGILLILLILGLGIGIPMYKVRKLQDSSFVDVFKKVDTLTTAVGSVYKKIITQTSVIKKAPSALKAANNAAPKAPVKPAAPTAPRPPVQPPKKA	binds
P90 (Mpn142 Fragment 2) (domain or fragment, UniProt Q50341 446-1218) AVTVVAGPLRAGNSSETDALPNVITQLYHTSTAQLAYLNGQIVVMGSDRVPSLWYWVVGEDQESGKATWWAKTELNWGTDKQKQFVENQLGFKDDSNSDSKNSNLKAQGLTQPAYLIAGLDVVADHLVFAAFKAGAVGYDMTTDSSASTYNQALAWSTTAGLDSDGGYKALVENTAGLNGPINGLFTLLDTFAYVTPVSGMKGGSQNNEEVQTTYPVKSDQKATAKIASLINASPLNSYGDDGVTVFDALGLNFNFKLNEERLPSRTDQLLVYGIVNESELKSARENAQSTSDDNSNTKVKWTNTASHYLPVPYYYSANFPEAGNRRRAEQRNGVKISTLESQATDGFANSLLNFGTGLKAGVDPAPVARGHKPNYSAVLLVRGGVVRLNFNPDTDKLLDSTDKNSEPISFSYTPFGSAESAVDLTTLKDVTYIAESGLWFYTFDNGEKPTYDGKQQQVKNRKGYAVITVSRTGIEFNEDANTTTLSQAPAALAVQNGIASSQDDLTGILPLSDEFSAVITKDQTWTGKVDIYKNTNGLFEKDDQLSENVKRRDNGLVPIYNEGIVDIWGRVDFAANSVLQARNLTDKTVDEVINNPDILQSFFKFTPAFDNQRAMLVGEKTSDTTLTVKPKIEYLDGNFYGEDSKIAGIPLNIDFPSRIFAGFAALPSWVIPVSVGSSVGILLILLILGLGIGIPMYKVRKLQDSSFVDVFKKVDTLTTAVGSVYKKIITQTSVIKKAPSALKAANNAAPKAPVKPAAPTAPRPPVQPPKKA	binds
Mpn142 Fragment 1 (domain or fragment, UniProt Q50341 26-308) NTYLLQDHNTLTPYTPFTTPLNGGLDVVRAAHLHPSYELVDWKRVGDTKLVALVRSALVRVKFQDTTSSDQSNTNQNALSFDTQESQKALNGSQSGSSDTSGSNSQDFASYVLIFKAAPRATWVFERKIKLALPYVKQESQGSGDQGSNGKGSLYKTLQDLLVEQPVTPYTPNAGLARVNGVAQDTVHFGSGQESSWNSQRSQKGLKNNPGPKAVTGFKLDKGRAYRKLNESWPVYEPLDSTKEGKGKDESSWKNSEKTTAENDAPLVGMVGSGAAGSASSLQ	binds

These are yes or no findings as the source states them, for the method shown. Binding seen in cells or lysates may run through a third protein. A yes stands for co-enrichment or nearness to the bait. Other partners may have been found.
